PubChem BioAssay AID504834 (National Center for Advancing Translational Sciences (NCATS), 2011)
The whole screen tested about 320,000 compounds, of which about 22,000 (6.9%) were called active. Inconclusive means that the source gave no clear call. Such entries were picked first, then a sample of the others. Calls follow the shape of the dose curve; as a rule, active = well fitted inhibition curve with a large enough effect; inconclusive = small, poorly fitted or top-dose-only effect, or another doubt; inactive = no such curve, though single readings can be large or run the other way. A potency beside an inconclusive call is a rough fit, not a confirmed value.

Assay: Primary qHTS for delayed death inhibitors of the malarial parasite plastid, 96 hour incubation
Details: P. falciparum luciferase reporter growth; series mostly up to 28.7 µM; activity change, negative = inhibition: at the top concentration
Procedure, shortened: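 Two-generation exposure (96 h) targets delayed-death phenotype. Reporter parasites carrying integrated firefly luciferase, in red cells at 2% hematocrit and 0.05% parasitemia final, kept at 37 C, 5% CO2; luminescence loss indicates inhibition.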
% is scaled to controls: 0 for no effect and ±100 for the full control effect; potency is read from the fitted curve at half-maximal effect.

Row | Structure (SMILES) | activity change, negative = inhibition | Potency
1 | CSc1nc(N)c(C(=O)NC2CCCCC2)s1 | inactive: 45.2% | 
2 | COc1ccc(C(=O)C2CCCN(Cc3ccccn3)C2)c(OC)c1 (configuration not stated) | inactive: 3.25% | 
3 | Cc1nc2scc(C)n2c(=O)c1S(=O)(=O)NC(C)c1ccccc1 (configuration not stated) |  | inconclusive: 13.1 µM [inhibitor, single point]
4 | Cc1cc(C(=O)CSc2ncnc3ccccc23)c(C)n1C1CC1 |  | inconclusive: 18.5 µM [inhibitor, single point]
5 | Cc1cccc(N2CCN(C(=O)c3cc4cc(F)ccc4[nH]3)CC2)c1C |  | active: 13.1 µM
6 | Cn1cc(C(=O)C(=O)N2CCc3ccccc32)c2ccccc21 | inactive: 11.8% | 
7 | COc1cccc(N2CCN(C(=O)c3cc4c(s3)CCCCC4)CC2)c1 | inactive: 62.4% | 
8 | COc1ccc(CN2CCN(C(=O)C3CC(=O)N(C4CCCCCC4)C3)CC2)c(OC)c1OC (configuration not stated) |  | inconclusive: 0.0041 µM [inhibitor, full curve]
9 | COCCN(Cc1cccs1)S(=O)(=O)c1csc(C(N)=O)c1 |  | inconclusive: 18.5 µM [inhibitor, single point]
10 | Cc1cc(=O)oc2cc(OCC(=O)N3CC(=O)Nc4ccccc43)c(Cl)cc12 |  | inconclusive: 10.4 µM [inhibitor, single point]
11 | CC(C)c1ccc(C(O)c2cnc(C(C)C)n2C)cc1 (configuration not stated) | inactive: -24.2% | 
12 | Nc1ccc(C(=O)N/N=C/c2cccc(Oc3ccccc3)c2)cc1 |  | inconclusive: 18.5 µM [inhibitor, single point]
13 | CCOc1ccc(-n2c(Cc3cc(=O)[nH]c(=O)[nH]3)nnc2SCC(=O)OC)cc1 |  | inconclusive: 1.04 µM [inhibitor, single point]
14 | COP(=S)(OC)Oc1ccc(Sc2ccc(OP(=S)(OC)OC)cc2)cc1 |  | inconclusive: 6.01 µM [inhibitor, partial curve, poor fit]
15 | c1ccc(-n2ncc3c2ncn2nnnc32)cc1 |  | inconclusive: 13.1 µM [inhibitor, single point]
16 | CCN(CC(=O)Nc1c(F)cccc1F)C(=O)/C=C/c1ccc(S(=O)(=O)N2CCCCCC2)cc1 |  | inconclusive: 8.28 µM [inhibitor, partial curve]
17 | O=C(CSc1nc2c(cnn2-c2ccccc2)c(=O)[nH]1)N1N=C(c2cccs2)CC1c1ccc(F)cc1 (configuration not stated) |  | inconclusive: 11.7 µM [inhibitor, partial curve, poor fit]
18 | CCN(CC)S(=O)(=O)c1ccc(N2CCOCC2)c(NC(=O)c2ccccc2)c1 |  | inconclusive: 4.15 µM [inhibitor, partial curve, poor fit]
19 | CCOc1ccc(N(CC(=O)NC2CCCCC2)C(=O)CCC(=O)Nc2nccs2)cc1 | inactive: -16.4% | 
20 | NC(=O)c1ccccc1NC(=O)CS(=O)(=O)Cc1ccccc1 |  | active: 9.28 µM
21 | Cc1cccc(NC(=O)CN2CCN(C(=O)c3cnn(Cc4ccccc4)c3)CC2)c1C |  | inconclusive: 10.4 µM [inhibitor, single point]
22 | COc1ccc(C(=O)c2cn[nH]c2-c2cc(C)ccc2O)cc1 |  | inconclusive: 1.85 µM [inhibitor, partial curve, poor fit]
23 | CCC(=O)c1ccc(OCC(O)CNCc2ccc(F)cc2)cc1 (configuration not stated) |  | inconclusive: 18.5 µM [inhibitor, single point]

Row | Structure (SMILES) | activity change, negative = inhibition | Potency
24 | Cc1ccc(CN2CCN(Cc3cn[nH]c3-c3cccc(F)c3)CC2CCO)o1 (configuration not stated) |  | inconclusive: 18.5 µM [inhibitor, single point]
25 | CC1(C)NC(=O)N(CCCCOc2ccc(Cl)cc2)C1=O |  | inconclusive: 18.5 µM [inhibitor, single point]
26 | CC(C)(CC(=O)O)CC(=O)Nc1ccc2c(c1)ncn2CCc1ccccc1 |  | inconclusive: 3.29 µM [inhibitor, partial curve]
27 | CCOC(=O)c1c(C)[nH]c(C(=O)COC(=O)C2CC2C)c1C (configuration not stated) | inactive: 85.1% | 
28 | COc1cc(C(=O)Oc2cccc(/C=N/NC(=O)c3cc(C)[nH]n3)c2)cc(OC)c1OC |  | inconclusive: 1.47 µM [inhibitor, full curve]
29 | Cc1cccc(C(=O)O/N=C2\CCSc3ccc(C)cc32)c1 | inactive: 30.3% | 
30 | COc1ccc2[nH]c(C(=O)O)c(CCNC(=O)/C=C/c3ccc(O)c(OC)c3)c2c1 | inactive: 4.48% | 
31 | CC(C)c1ccc(/C=C2\SC(N3CCCC3)=NC2=O)cc1 |  | active: 3.7 µM
32 | Cc1cccc(C)c1OC(=O)CSc1nnc(-c2ccccc2O)o1 | inactive: 30.4% | 
33 | O=C(O)CCn1cc(/C=C2/NC(=S)N(c3ccccc3)C2=O)c(-c2ccccc2)n1 |  | active: 3.7 µM
34 | Cc1cc(C)nc(N/N=C/c2c(CO)cnc(C)c2O)n1 |  | inconclusive: 3.29 µM [inhibitor, full curve]
35 | CN(C)c1ccc(S(=O)(=O)NCC(=O)NCCC2=CCCCC2)cc1[N+](=O)[O-] |  | inconclusive: 11.7 µM [inhibitor, partial curve, poor fit]
36 | Cc1ccc(N/C=C2\CCCCC2=O)nc1 |  | inconclusive: 11.7 µM [inhibitor, single point]
37 | Cc1ccc(-c2nn(CCC#N)cc2C=C(C#N)C#N)cc1 | inactive: -2.7% | 
38 | CCCCN(C(=O)c1cccc(S(=O)(=O)N2CC(C)OC(C)C2)c1)c1c(N)n(CCCC)c(=O)[nH]c1=O (configuration not stated) |  | inconclusive: 7.38 µM [inhibitor, partial curve]
39 | O=C(COC(=O)c1cc(=O)[nH]c(=O)[nH]1)Nc1cccc(S(=O)(=O)N2CCOCC2)c1 |  | inconclusive: 4.15 µM [inhibitor, partial curve, poor fit]
40 | Cc1ccc(S(=O)(=O)c2nnn3c2nc(NCCCN2CCCC2=O)c2ccccc23)cc1C |  | inconclusive: 18.5 µM [inhibitor, single point]
41 | CCOCCCNC(=O)CN1C(=O)COc2ccc(S(=O)(=O)N3CC(C)CC(C)C3)cc21 (configuration not stated) |  | inconclusive: 18.5 µM [inhibitor, single point]
42 | CC(C)Cn1c(N)c(C(=O)COC(=O)c2ccc3c(c2)OCCO3)c(=O)n(C)c1=O |  | inconclusive: 9.28 µM [inhibitor, single point]
43 | COc1ccc(NC(=O)CCNS(=O)(=O)c2cc(Br)cnc2N)cc1OC |  | inconclusive: 1.85 µM [inhibitor, full curve]
44 | CCOC(=O)c1c(C)n(C)c2ccc(O)cc12 |  | inconclusive: 3.79 µM [inhibitor, full curve]
45 | Cc1cc(C)cc(NC(=O)COC(=O)Cn2cnc3c2c(=O)n(C)c(=O)n3C)c1 | inactive: -1.47% | 
46 | CCOC(=O)CC1CCCCN1C(=O)c1ccc2oc(CCc3ccccc3)nc2c1 (configuration not stated) |  | inconclusive: 4.65 µM [inhibitor, partial curve, poor fit]

Row | Structure (SMILES) | activity change, negative = inhibition | Potency
47 | CCN1/C(=C/C(=S)Nc2ccccc2)Sc2ccccc21 |  | inconclusive: 18.5 µM [inhibitor, single point]
48 | COc1ccc(-n2c(-c3ccccc3)c[n+]3c2CCC3)cc1 |  | inconclusive: 0.738 µM [inhibitor, full curve]
49 | COc1ccc(-c2noc(CCC(=O)O)n2)cc1 |  | inconclusive: 2.33 µM [inhibitor, partial curve, poor fit]
50 | CC(C)OCCCNC(=O)c1ccccc1NC(=O)C1=CSCCO1 |  | inconclusive: 18.5 µM [inhibitor, single point]
51 | O=C(Nc1cccnc1)c1ccc(Cl)c(S(=O)(=O)N2CCc3ccccc32)c1 |  | active: 3.7 µM
52 | Cc1cc(C)c2cc(CN(CCO)C(=O)Nc3ccc(F)cc3)c(=O)[nH]c2c1 |  | inconclusive: 18.5 µM [inhibitor, single point]
54 | COc1ccc(Cl)cc1C(=O)Nc1ccccc1N1CCCCC1 |  | inconclusive: 18.5 µM [inhibitor, single point]
55 | COc1cccc(-c2cc(C(=O)N3CCCc4ccccc43)no2)c1 |  | inconclusive: 10.4 µM [inhibitor, partial curve, poor fit]
56 | Cc1cc(S(=O)(=O)N(Cc2ccc(C(C)C)cc2)CC2CCCO2)ccc1-n1cnnn1 (configuration not stated) |  | inconclusive: 10.4 µM [inhibitor, single point]
57 | CCCN(CCC)c1nc(-c2ccccn2)nc2ccccc12 |  | active: 0.329 µM
58 | O=C(NC1CCCCC1)N1CCN(c2ccc([N+](=O)[O-])cc2)CC1 |  | inconclusive: 9.28 µM [inhibitor, single point]
59 | Cc1cc(-c2nnc(-c3ccccc3)c(-c3ccccc3)n2)c(C)o1 |  | inconclusive: 9.28 µM [inhibitor, partial curve, poor fit]
60 | Cc1[nH]c2ccccc2c1C(=O)C(=O)N(C)C1CCCCC1 |  | active: 2.62 µM
61 | C[C@H](NC(=O)NCc1ccc(F)cc1)C(=O)O |  | inconclusive: 7.38 µM [inhibitor, single point]
62 | O=C(/C=C/Nc1ccccc1O)c1ccco1 | inactive: 15.3% | 
63 | O=C(NCc1ccccc1)C1CCCN1C(=O)Nc1ccccc1[N+](=O)[O-] (configuration not stated) |  | inconclusive: 10.4 µM [inhibitor, single point]
64 | CC1CC(C)CN(C(=O)c2cccc(S(=O)(=O)N3c4ccccc4CC3C)c2)C1 (configuration not stated) |  | inconclusive: 10.4 µM [inhibitor, single point]
65 | O=C1C2C3C=CC(C3)C2C(=O)N1c1ccncc1 (configuration not stated) |  | inconclusive: 18.5 µM [inhibitor, single point]
66 | O=[N+]([O-])c1cccc(-c2c(-c3ccccc3)ncc3cc(F)ccc23)c1 |  | inconclusive: 3.29 µM [inhibitor, partial curve, poor fit]
67 | Cc1onc(-c2ccccc2Cl)c1C(=O)N1CCN(S(=O)(=O)c2ccc(F)c(F)c2)CC1 |  | inconclusive: 10.4 µM [inhibitor, single point]

As a short view, some entries already given:
Row | Structure (SMILES) | activity change, negative = inhibition | Potency
50 | CC(C)OCCCNC(=O)c1ccccc1NC(=O)C1=CSCCO1 |  | inconclusive: 18.5 µM [inhibitor, single point]
51 | O=C(Nc1cccnc1)c1ccc(Cl)c(S(=O)(=O)N2CCc3ccccc32)c1 |  | active: 3.7 µM
52 | Cc1cc(C)c2cc(CN(CCO)C(=O)Nc3ccc(F)cc3)c(=O)[nH]c2c1 |  | inconclusive: 18.5 µM [inhibitor, single point]
54 | COc1ccc(Cl)cc1C(=O)Nc1ccccc1N1CCCCC1 |  | inconclusive: 18.5 µM [inhibitor, single point]
